PubChem BioAssay AID1259317 | Drosophila RNAi Screening Center, 2017

Purpose: 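Knockdowns that alter fly cell sensitivity to manganese chloride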 (primary screen)
Cells: Drosophila S2R+ cells
Reagent: long dsRNA against Drosophila genes
Timing: 5 days (4 days knockdown, then 1 day metal)
Conditions: manganese chloride added to 15 mM final for 1 day
Detection: 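Cellular ATP measured by luciferase luminescence after 4 days knockdown then 1 day of 15 mM manganese chloride; z-score averaged over three plates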
Reading the numbers: mean z-score, 3 replicates: higher = more ATP, more surviving cells under manganese
Hit rule: 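Active calls require an absolute mean z-score greater than 1.5, in either direction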
Calls: active = hit: z-score beyond ±1.5 (ATP up or down); inactive = not a hit
The deposit covers 418 reagents; this is an unselected part. 34 of all reagents (8.1%) count as active. 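Hits are two-sided: raised or lowered ATP both count; higher z-score means more ATP and more surviving cells.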 Unmarked entries are inactive. No sequences are given here. Not stated in the record: the amount of reagent.

gene knocked down | PubChem SID | mean z-score, 3 replicates
Vha100-4 | SID104196074 | -0.205
Vha100-4 | SID104204683 | -0.0243
CG7408 | SID104190633 | 0.168
CG31926 | SID104180087 | 0.0827
CG31926 | SID104207566 | 0.359
Ctr1A | SID104198128 | -1.95 (active)
Ctr1A | SID104217883 | -1.42
Ctr1A | SID104218475 | -1.15
Pex13 | SID104186669 | 0.113
Pex13 | SID104217782 | -0.0472
Pex13 | SID104217917 | -0.0717
Ppt2 | SID104182578 | 0.791
Ppt2 | SID104204571 | -0.259
Ppt2 | SID104218639 | 0.929
CG4860 | SID104201424 | -0.569
Pex14 | SID104191546 | -0.614
Pex14 | SID104206883 | 0.0406
Pex11ab | SID104186937 | 0.609
Cln7 | SID104190797 | 1.8 (active)
Cln7 | SID104217761 | -0.405
Vha14-2 | SID104191937 | -0.275
Vps28 | SID104185960 | -1.01
Vps28 | SID104209641 | -0.596
Vps28 | SID104209642 | -1.32
Daao2 | SID104181927 | 0.961
CtsF | SID104191848 | -0.514
CtsF | SID104191987 | 2.51 (active)
CtsF | SID104191988 | 0.0799
Tsp39D | SID104182891 | -0.24
Tsp39D | SID104217624 | 0.286
Xpac | SID104198522 | -0.458
Xpac | SID104204507 | 2.2 (active)
Xpac | SID104218602 | 0.85
Cat | SID104190902 | -0.61
Cat | SID104203021 | -0.396
Cat | SID104216517 | -0.524
hay | SID104191146 | 0.565
hay | SID104213355 | 2.7 (active)
hay | SID104215133 | 1.3
CG1827 | SID104186511 | -0.351
Vha68-3 | SID104182601 | -0.421
Vha68-3 | SID104204286 | 3.33 (active)
Vha100-5 | SID104204983 | 0.62
Vha100-5 | SID104208690 | 0.859
Vha100-5 | SID104208691 | 1.77 (active)
Npc2b | SID104195256 | 0.692
vsg | SID104203773 | 1.71 (active)
Acox3 | SID104183043 | -0.0568
Acox3 | SID104202893 | 0.77
Gal | SID104182926 | 0.0989
Gal | SID104203263 | -0.432
CG31928 | SID104180085 | 0.416
ACC | SID104187041 | -0.223
ACC | SID104208804 | 0.988
ACC | SID104208805 | -0.104
Vps33B | SID104195514 | 0.19
Vps33B | SID104212933 | 0.404
Agxt | SID104198510 | -0.659
Agxt | SID104204659 | -0.136
Vha13 | SID104196687 | 1.02
CG10474 | SID104185785 | -0.976
betaGlu | SID104203459 | -0.363
betaGlu | SID104216655 | 0.194
betaGlu | SID104218653 | 0.725
cm | SID104218818 | 0.866
CG1607 | SID104194922 | 0.357
CG1607 | SID104205554 | 0.159
Gnptab | SID104186849 | -0.133
Vps26 | SID104202792 | -0.809
Vps26 | SID104214945 | -0.336
Sod1 | SID104191078 | -0.434
Sod1 | SID104212169 | 1.96 (active)
Sod1 | SID104218339 | -0.916
CG13084 | SID104181980 | -0.0237

Active calls, of those listed so far:
gene knocked down | PubChem SID | mean z-score, 3 replicates
Ctr1A | SID104198128 | -1.95 (active)
Cln7 | SID104190797 | 1.8 (active)
CtsF | SID104191987 | 2.51 (active)
Xpac | SID104204507 | 2.2 (active)
hay | SID104213355 | 2.7 (active)
Vha68-3 | SID104204286 | 3.33 (active)
Vha100-5 | SID104208691 | 1.77 (active)
vsg | SID104203773 | 1.71 (active)
Sod1 | SID104212169 | 1.96 (active)
